Experimental data: PubChem BioAssay AID1159584 (Peter MacCallum Cancer Centre, 2016)

Screen: 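Genes that CDH1-null MCF10A cells selectively depend on to survive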 (primary screen)
Cells: human MCF10A breast epithelial cells, parental and CDH1-null
Reagents: siRNA against human genes
Measurement: 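ATP luminescence (CellTiter-Glo) viability per line relative to mean mock wells over all plates, and the ratio of CDH1-null to parental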
Direction: CDH1-null / parental viability ratio: higher = CDH1-null cells survive relatively better than parental; CDH1-null viability vs mock: higher = more viable CDH1-null cells; parental viability vs mock: higher = more viable parental cells
Shown is one part, drawn at random, of about 18,000 reagents tested. Not given: the amount of reagent, the time to read-out.

gene symbol,PubChem SID,CDH1-null / parental viability ratio,CDH1-null viability vs mock (fraction of mock),parental viability vs mock (fraction of mock)
CDK12 (GeneID 51755),SID152151382,0.76,0.62,0.82
EFEMP1 (GeneID 2202),SID152153244,0.95,1.01,1.06
EPS8L3 (GeneID 79574),SID134317163,1.25,0.7,0.56
SEMA3E (GeneID 9723),SID152154217,0.94,1.15,1.22
LRRC39 (GeneID 127495),SID152148023,0.9,0.65,0.72
SIGLEC6 (GeneID 946),SID152147291,0.61,0.5,0.82
ADAM17 (GeneID 6868),SID152153543,0.98,0.82,0.84
ZNF304 (GeneID 57343),SID134324369,0.98,0.43,0.44
CAPRIN1 (GeneID 4076),SID152156490,0.77,0.48,0.62
GRAMD4 (GeneID 23151),SID152147821,1.18,0.98,0.83
LIMS1 (GeneID 3987),SID135622240,0.57,0.36,0.63
UGDH (GeneID 7358),SID152152448,0.79,0.66,0.84
TAAR6 (GeneID 319100),SID152148914,0.83,0.88,1.06
SOCS4 (GeneID 122809),SID134313874,1.1,0.9,0.82
PKD1L1-AS1 (GeneID 80099),SID135622762,3.06,0.55,0.18
CLDN16 (GeneID 10686),SID152154492,1.03,0.99,0.96
TAAR2 (GeneID 9287),SID152154037,1.4,0.95,0.68
TNNT2 (GeneID 7139),SID134323168,1.05,0.63,0.6
PDE8A (GeneID 5151),SID152148393,1.09,0.6,0.55
H1-10 (GeneID 8971),SID134316457,0.88,0.45,0.51
ADGRD1 (GeneID 283383),SID134326736,1.48,0.89,0.6
TRAF2 (GeneID 7186),SID134310800,1.27,0.56,0.44
EPHA4 (GeneID 2043),SID152148822,0.83,0.62,0.75
NSUN5 (GeneID 55695),SID134324937,0.99,0.97,0.98
H2AC18 (GeneID 8337),SID134315774,0.75,0.64,0.85
KRTAP4-4 (GeneID 84616),SID135622559,0.91,0.84,0.92
ADAM2 (GeneID 2515),SID135621990,1.03,0.72,0.7
MMS19 (GeneID 64210),SID152147026,1.02,1.06,1.04
ELF4 (GeneID 2000),SID152154274,1.32,0.9,0.68
CXCL11 (GeneID 6373),SID134312809,0.98,0.84,0.86
MAP6D1 (GeneID 79929),SID134318639,0.89,0.68,0.76
KLRF1 (GeneID 51348),SID135624026,0.79,0.65,0.82
HOXD3 (GeneID 3232),SID134321285,1.1,1.09,0.99
RNF144A (GeneID 9781),SID152152745,1.03,1,0.97
TMEM236 (GeneID 653567),SID135624562,0.93,0.86,0.92
REPIN1 (GeneID 29803),SID152149680,0.91,0.67,0.74
TUBB7P (GeneID 56604),SID135621891,1.21,0.69,0.57
SPICE1 (GeneID 152185),SID134321024,1.06,0.72,0.68
CXXC4 (GeneID 80319),SID134313665,1.04,0.5,0.48
MSLNL (GeneID 401827),SID135624935,1.14,0.72,0.63
SGO1 (GeneID 151648),SID135622954,1.07,0.49,0.46
PLA2G5 (GeneID 5322),SID152152765,0.99,0.97,0.98
DENND5A (GeneID 23258),SID134326642,0.94,0.79,0.84
FBP2 (GeneID 8789),SID134314769,1.53,0.9,0.59
ARHGAP1 (GeneID 392),SID134313807,0.81,0.7,0.86
OR10T2 (GeneID 128360),SID135624298,0.91,0.62,0.68
TFAP2B (GeneID 7021),SID152156730,1.07,1.08,1.01
TMEM52 (GeneID 339456),SID135623407,0.9,0.65,0.72
IQGAP2 (GeneID 10788),SID152148962,1.13,1.15,1.02
CSAG1 (GeneID 158511),SID134321158,1.32,0.86,0.65
TRIM3 (GeneID 10612),SID134312057,1.03,0.93,0.9
SLC38A2 (GeneID 54407),SID134312605,0.97,0.73,0.75
RAP1GDS1 (GeneID 5910),SID135623041,0.79,0.76,0.96
CARD9 (GeneID 64170),SID135620822,0.9,0.66,0.73
U2SURP (GeneID 23350),SID135624389,0.91,0.75,0.82
SLC10A4 (GeneID 201780),SID134312427,0.83,0.76,0.92
BPIFB2 (GeneID 80341),SID135621766,1.1,0.79,0.72
ZBBX (GeneID 79740),SID135622736,0.92,0.7,0.76
SLTM (GeneID 79811),SID152155606,1.09,0.62,0.57
EFCAB6 (GeneID 64800),SID135622696,1.05,0.98,0.93
NOX1 (GeneID 27035),SID135621902,1.14,1.03,0.9
NCAPH (GeneID 23397),SID152155024,0.77,0.7,0.91
ZNF225 (GeneID 7768),SID152147541,0.6,0.55,0.92
TMA7 (GeneID 51372),SID152149148,1.49,0.7,0.47
SDR16C5 (GeneID 195814),SID152153040,1.14,0.9,0.79
ZNF277 (GeneID 11179),SID152148243,0.87,0.73,0.84
UBXN8 (GeneID 7993),SID152147978,1.35,0.62,0.46
KCNK5 (GeneID 8645),SID152156175,1.26,0.96,0.76
MYL10 (GeneID 93408),SID134319600,0.86,0.77,0.9
FAM241A (GeneID 132720),SID134319507,1.29,0.93,0.72
GFPT2 (GeneID 9945),SID135621940,0.94,0.97,1.03
NEDD8 (GeneID 4738),SID152151265,1.13,1.08,0.96
TRMT10B (GeneID 158234),SID152149755,1.4,1.29,0.92
SYN1 (GeneID 6853),SID152147149,1.22,1,0.82
DHPS (GeneID 1725),SID152147546,1.51,1.45,0.96
MYOCD (GeneID 93649),SID134319921,1.19,0.94,0.79
DHX37 (GeneID 57647),SID134322887,0.91,0.99,1.09
EXTL3 (GeneID 2137),SID134316840,0.92,0.81,0.88
MACC1 (GeneID 346389),SID152153034,0.95,0.69,0.73
LY6G6C (GeneID 80740),SID134318736,1.07,1.03,0.96
ASCL1 (GeneID 429),SID152151796,0.9,0.94,1.05
AOC1 (GeneID 26),SID152149833,1.12,0.93,0.83
IGF2R (GeneID 3482),SID152150296,0.83,0.84,1.01
CAPN12 (GeneID 147968),SID134311229,0.8,0.53,0.66
RHOXF2 (GeneID 84528),SID134318991,1.26,0.63,0.5
CCDC90B (GeneID 60492),SID134320751,0.94,0.85,0.9
LRRC37A (GeneID 9884),SID152155954,0.98,0.9,0.92
